Data as given in PubChem BioAssay AID1053208 (Peter MacCallum Cancer Centre, 2014).

- Test: 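Find knock-downs that sensitise mouse osteosarcoma cells to doxorubicin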 (primary screen)
- System: mouse osteosarcoma cells, early-passage culture from an engineered mouse model of fibroblastic bone tumour
- Reagents: siRNA pool against mouse genes, 40 nM
- Time to read-out: about 120 h (48 h before drug, then 72 h with drug)
- Conditions: doxorubicin 100 nM for 72 h, roughly 30-40% inhibitory dose
- Detection: 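Viability read as ATP luminescence after 72 h of 100 nM doxorubicin or none, duplicate wells averaged, scaled to non-targeting siRNA, then expressed as robust z-scores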
- Scale: viability z-score with doxorubicin and doxorubicin viability vs non-targeting: higher = more viable cells under doxorubicin; viability z-score without drug: higher = more viable cells with knock-down alone; z-score of drug to no-drug ratio: higher = less drug sensitisation by knock-down
- Call rule: 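a pool counts as active when its viability z-score with doxorubicin is -2 or below and its z-score without drug lies between -2 and 2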
Here is an unselected part of about 17,000 reagents. Of all reagents, 788 (4.7%) were called active. 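Calls rest on z-score classes alone; an extra cut-off of viability at most 70% of control was not applied to them.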

| target | combined z-score class | viability z-score with doxorubicin | viability z-score without drug | z-score of drug to no-drug ratio | doxorubicin viability vs non-targeting | Outcome |
| --- | --- | --- | --- | --- | --- | --- |
| Mtor | low cell count with doxorubicin only | -2.25 | 0.51 | -2.47 | 0.74 | active |
| Cdc50b | no change with or without drug | 0.45 | -1.01 | 1.35 | 0.98 | inactive |
| Or6b6 | no change with or without drug | -1.91 | 1.52 | -2.7 | 0.77 | inactive |
| Pcdhga6 | no change with or without drug | -1.57 | -0.17 | -1.46 | 0.8 | inactive |
| AU044581 | no change with or without drug | -0.45 | -0.84 | 0.22 | 0.9 | inactive |
| Lsm12 | no change with or without drug | -1.69 | -0.34 | -1.46 | 0.79 | inactive |
| Stfa1 | high cell count with and without drug | 2.47 | 2.36 | 0.9 | 1.16 | inactive |
| Arfgef2 | no change with or without drug | -0.9 | -0.17 | -0.79 | 0.86 | inactive |
| Pigv | no change with or without drug | -1.8 | -1.18 | -1.01 | 0.78 | inactive |
| Fgf15 | no change with or without drug | 0 | -0.34 | 0.34 | 0.94 | inactive |
| Lpar3 | no change with or without drug | -0.67 | -1.01 | 0.11 | 0.88 | inactive |
| Ufd1 | low cell count with doxorubicin only | -2.47 | -1.85 | -1.35 | 0.72 | active |
| Rab4a | high cell count without drug only | 1.57 | 2.36 | 0.11 | 1.08 | inactive |
| Or56b35 | no change with or without drug | -1.12 | -1.18 | -0.34 | 0.84 | inactive |
| Ndst3 | low cell count without drug only | -1.12 | -2.19 | 0.45 | 0.84 | inactive |
| Klf16 | no change with or without drug | 0.22 | -0.17 | 0.45 | 0.96 | inactive |
| Nmbr | no change with or without drug | 0.79 | 1.69 | -0.22 | 1.01 | inactive |
| Otor | no change with or without drug | 0 | 0.17 | 0 | 0.94 | inactive |
| Tgfbi | no change with or without drug | -0.67 | -0.17 | -0.45 | 0.88 | inactive |
| Cgref1 | no change with or without drug | -0.45 | 0.51 | -0.67 | 0.9 | inactive |
| Hpse | no change with or without drug | 0.45 | 1.35 | -0.34 | 0.98 | inactive |
| Gpcpd1 | high cell count without drug only | -0.45 | 2.19 | -1.69 | 0.9 | inactive |
| Ank3 | no change with or without drug | -0.79 | 1.01 | -1.35 | 0.87 | inactive |
| Fut4 | no change with or without drug | 0 | 0.84 | -0.45 | 0.94 | inactive |
| Or10a3b | no change with or without drug | 0.22 | 0.17 | 0.22 | 0.96 | inactive |
| Crebl2 | high cell count without drug only | 0.34 | 2.19 | -0.9 | 0.97 | inactive |
| Or9i16 | no change with or without drug | -0.45 | -1.35 | 0.56 | 0.9 | inactive |
| Camkk2 | no change with or without drug | -0.45 | 0.17 | -0.45 | 0.9 | inactive |
| Xpnpep1 | no change with or without drug | 0.22 | 0.51 | 0 | 0.96 | inactive |
| H2-M3 | no change with or without drug | -0.22 | -0.84 | 0.45 | 0.92 | inactive |
| Zfp637 | low cell count without drug only | -0.79 | -2.87 | 1.57 | 0.87 | inactive |
| Tlr8 | no change with or without drug | 0.67 | -0.17 | 0.9 | 1 | inactive |
| Timeless | no change with or without drug | 0.22 | 0.51 | 0 | 0.96 | inactive |
| Mtr | no change with or without drug | 0.34 | 0.67 | 0 | 0.97 | inactive |
| Lsm8 | no change with or without drug | 0 | -1.35 | 1.12 | 0.94 | inactive |
| Chrna9 | no change with or without drug | -1.46 | -0.51 | -1.12 | 0.81 | inactive |
| Nrm | no change with or without drug | 1.12 | 0.84 | 0.67 | 1.04 | inactive |
| Mis12 | high cell count with doxorubicin only | 2.81 | 1.18 | 2.14 | 1.19 | inactive |
| Gmeb1 | no change with or without drug | -0.79 | -1.18 | 0.11 | 0.87 | inactive |
| Slc35g1 | high cell count without drug only | 1.12 | 2.19 | -0.22 | 1.04 | inactive |
| Celf1 | no change with or without drug | -0.34 | 0 | -0.22 | 0.91 | inactive |
| Lpar2 | no change with or without drug | 0.9 | -0.67 | 1.57 | 1.02 | inactive |
| Apoa4 | no change with or without drug | 0.22 | 1.18 | -0.45 | 0.96 | inactive |
| Fmod | no change with or without drug | 1.01 | 1.85 | -0.11 | 1.03 | inactive |
| Cspp1 | no change with or without drug | -1.35 | 1.52 | -2.14 | 0.82 | inactive |
| Kdm8 | no change with or without drug | -0.67 | -1.52 | 0.45 | 0.88 | inactive |
| Ptrh2 | no change with or without drug | -0.45 | -0.17 | -0.22 | 0.9 | inactive |
| Csnk2b | no change with or without drug | 1.12 | -0.51 | 1.69 | 1.04 | inactive |
| Rabep1 | no change with or without drug | -0.11 | 0.51 | -0.34 | 0.93 | inactive |
| Zfpl1 | no change with or without drug | 1.8 | 1.85 | 0.67 | 1.1 | inactive |

Quoted from the entries so far for reference:
| target | combined z-score class | viability z-score with doxorubicin | viability z-score without drug | z-score of drug to no-drug ratio | doxorubicin viability vs non-targeting | Outcome |
| --- | --- | --- | --- | --- | --- | --- |
| Ndst3 | low cell count without drug only | -1.12 | -2.19 | 0.45 | 0.84 | inactive |
| Klf16 | no change with or without drug | 0.22 | -0.17 | 0.45 | 0.96 | inactive |
| Nmbr | no change with or without drug | 0.79 | 1.69 | -0.22 | 1.01 | inactive |
| Otor | no change with or without drug | 0 | 0.17 | 0 | 0.94 | inactive |
| Tgfbi | no change with or without drug | -0.67 | -0.17 | -0.45 | 0.88 | inactive |
| Cgref1 | no change with or without drug | -0.45 | 0.51 | -0.67 | 0.9 | inactive |
